From patent publication US10064926B2, “Peptides and combination of peptides for use in immunotherapy against hepatocellular carcinoma (HCC) and other cancers” (Immatics biotechnologies GmbH, priority 2014, dated 2018)

Key:
[1] = system: tumor samples of other tumor types; assay: Over-presentation of peptides on additional tumor types versus normal tissues (LC-MS); parameters: species or system human; conditions: for Additional Entities (additional tumor types on which the peptide was found over-presented) / Other relevant organs/diseases (additional tumor types on which the peptide was found over-presented): over-presentation on more than 5% of the measured tumor samples, or presentation on more than 5% with ratio of geometric means tumor vs normal tissues larger than 3
[2] = system: primary HCC tissue samples; assay: Identification and label-free LC-MS relative quantitation of HLA-presented peptides (presentation profiles/scores), HCC versus normal tissues; parameters: species or system human; key to PeptidePresentation (presentation score): very highly over-presented on tumors compared to a panel of normal tissues (+++); highly over-presented on tumors compared to a panel of normal tissues (++); over-presented on tumors compared to a panel of normal tissues (+); conditions: for PeptidePresentation (presentation score): HCC tumors compared to a panel of normal tissues
[3] = FIG. 1, only samples on which the peptide was presented

| Substance | Additional Entities (additional tumor types on which the peptide was found over-presented) [1] | Other relevant organs/diseases (additional tumor types on which the peptide was found over-presented) [1] | PeptidePresentation (presentation score) [2] | number of cancer tissues on which the peptide was presented [1, 3] | number of cell-lines on which the peptide was presented [1, 3] | number of normal tissues on which the peptide was presented [1, 3] | over-presentation in HCC compared with normal tissues ([2]; FIG. 1 presentation profiles) |
| --- | --- | --- | --- | --- | --- | --- | --- |
| 283 (ILSGIGVSQV; listed as Homo sapiens) [compound 283] | NSCLC, PrC, BRCA, Melanoma, OC, Esophageal Cancer, Urinary bladder cancer, Uterine Cancer, Gallbladder Cancer, Bile Duct Cancer, NHL, PC | Pancreas | + |  |  |  |  |
| 242 (GLFAPVHKV; listed as Homo sapiens) [compound 242] | Urinary bladder cancer |  | + |  |  |  |  |
| 38 (ALADVVHEA; listed as Homo sapiens) [compound 38] | BRCA, OC |  | + |  |  |  |  |
| 266 (SLLESNKDLLL; listed as Homo sapiens) [compound 266] | SCLC, MCC, Uterine Cancer | Colon, Rectum | + |  |  |  |  |
| 343 (LLLPDYYLV; listed as Homo sapiens) [compound 343] |  | Brain, Pancreas | + |  |  |  |  |
| 137 (ALPTVLVGV; listed as Homo sapiens) [compound 137] | NSCLC, GC, BRCA, Melanoma, Esophageal Cancer, Urinary bladder cancer, Uterine Cancer, Gallbladder Cancer, Bile Duct Cancer, PC | Kidney, Brain, Colon, Rectum | ++ |  |  |  |  |
| 214 (IYVTSIEQI; listed as Homo sapiens) [compound 214] | NSCLC, RCC | Brain | +++ |  |  |  |  |
| 180 (YLGPHIASVTL; listed as Homo sapiens) [compound 180] | Melanoma |  | ++ |  |  |  |  |
| 220 (SLLEKELESV; listed as Homo sapiens) [compound 220] | NSCLC, SCLC, PrC, CLL, BRCA, OC, Esophageal Cancer, Urinary bladder cancer, NHL | Brain | ++ |  |  |  |  |
| 245 (KLGAVFNQV; listed as Homo sapiens) [compound 245] | NSCLC, SCLC, RCC, PrC, BRCA, Melanoma, Esophageal Cancer, Urinary bladder cancer, Uterine Cancer | Brain | + |  |  |  |  |
| 198 (LYWSHPRKF; listed as Homo sapiens) [compound 198] | NSCLC | Kidney | + |  |  |  |  |
| 231 (RLFNDPVAMV; listed as Homo sapiens) [compound 231] | NSCLC, SCLC, MCC, Melanoma, OC, Urinary bladder cancer, Gallbladder Cancer, Bile Duct Cancer | Brain, Colon, Rectum | ++ |  |  |  |  |
| 281 (GLLAGDRLVEV; listed as Homo sapiens) [compound 281] | NSCLC, SCLC, OC, Urinary bladder cancer, Uterine Cancer, Gallbladder Cancer, Bile Duct Cancer, NHL | Kidney | + |  |  |  |  |
| 267 (ALNENINQV; listed as Homo sapiens) [compound 267] | SCLC, Brain Cancer, MCC, Melanoma, Esophageal Cancer, Urinary bladder cancer, Gallbladder Cancer, Bile Duct Cancer |  | + |  |  |  |  |
| 317 (KLPEKWESV; listed as Homo sapiens) [compound 317] |  | Brain, Colon, Rectum, Pancreas | ++ |  |  |  |  |
| 289 (LLLEEGGLVQV; listed as Homo sapiens) [compound 289] | NSCLC, SCLC, PrC, Melanoma, OC, Urinary bladder cancer, NHL | Kidney, Colon, Rectum, Pancreas | ++ |  |  |  |  |

| Substance | Additional Entities (additional tumor types on which the peptide was found over-presented) [1] | Other relevant organs/diseases (additional tumor types on which the peptide was found over-presented) [1] | PeptidePresentation (presentation score) [2] | number of cancer tissues on which the peptide was presented [1, 3] | number of cell-lines on which the peptide was presented [1, 3] | number of normal tissues on which the peptide was presented [1, 3] | over-presentation in HCC compared with normal tissues ([2]; FIG. 1 presentation profiles) |
| --- | --- | --- | --- | --- | --- | --- | --- |
| 230 (VLTEFTREV; listed as Homo sapiens) [compound 230] | NSCLC, SCLC, CLL, BRCA, Melanoma, OC, Esophageal Cancer, Urinary bladder cancer, Uterine Cancer, Gallbladder Cancer, Bile Duct Cancer, NHL | Kidney, Brain, Colon, Rectum | + |  |  |  |  |
| 119 (YLDKNLTVSV; listed as Homo sapiens) [compound 119] |  | Kidney | + |  |  |  |  |
| 334 (SILTIEDGIFEV; listed as Homo sapiens) [compound 334] |  | Kidney, Brain, Colon, Rectum, Pancreas, CLL | + |  |  |  |  |
| 229 (KMFESFIESV; listed as Homo sapiens) [compound 229] | NSCLC, SCLC, PrC, OC, Urinary bladder cancer | Kidney, Brain, Colon, Rectum | ++ |  |  |  |  |
| 240 (FLWERPTLLV; listed as Homo sapiens) [compound 240] |  | CLL | +++ |  |  |  |  |
| 104 (SVWFGPKEV; listed as Homo sapiens) [compound 104] | SCLC, Melanoma, Urinary bladder cancer, PC |  |  | 16 | 9 | 1 | over-presentation |
| 288 (LLDDSLVSI; listed as Homo sapiens) [compound 288] | Melanoma, Urinary bladder cancer, AML | Pancreas | + |  |  |  |  |
| 197 (RWPKKSAEF; listed as Homo sapiens) [compound 197] | NSCLC | Kidney, Brain | + |  |  |  |  |
| 257 (SLLEKAGPEL; listed as Homo sapiens) [compound 257] | CLL, Melanoma, OC |  | +++ |  |  |  |  |
| 324 (RLFETKITQV; listed as Homo sapiens) [compound 324] |  | Kidney | ++ |  |  |  |  |
| 295 (SLFSSPPEI; listed as Homo sapiens) [compound 295] | NSCLC, SCLC, CRC, PrC, BRCA, Melanoma, OC, Urinary bladder cancer, Uterine Cancer | Kidney, Brain | ++ |  |  |  |  |
| 81 (NLASFIEQVAV; listed as Homo sapiens) [compound 81] | SCLC, PrC, OC, Uterine Cancer, NHL | Kidney, Colon, Rectum, Pancreas | ++ |  |  |  |  |
| 202 (AYGTYRSNF; listed as Homo sapiens) [compound 202] | NSCLC |  | +++ |  |  |  |  |
| 336 (YLPTFFLTV; listed as Homo sapiens) [compound 336] |  | Kidney, Brain | + |  |  |  |  |
| 278 (ALTSVVVTL; listed as Homo sapiens) [compound 278] | NSCLC, SCLC, GC, Esophageal Cancer, Urinary bladder cancer, Gallbladder Cancer, Bile Duct Cancer, AML, NHL | Kidney, Brain | + |  |  |  |  |
